# Assay results from PubChem BioAssay AID1347076 (National Center for Advancing Translational Sciences (NCATS), 2019).
# Hit rate of the full screen: of about 400,000 compounds, about 13,000 (3.2%) were called active. Inconclusive results, whose numbers are uncertain, are shown with a selection of clear calls. The call rests on the fitted dose curve; in most records, active means well fitted cell-killing curve with a large enough effect; inconclusive means small, poorly fitted or top-dose-only effect, or effect the other way; inactive means flat fitted curve, though single readings scatter. Potencies beside an inconclusive call are fits to weak or partial responses and may not hold up.
# Assay: qHTS assay for MDR1-selective chemotherapeutics: Primary screen using the drug-selected MDR subline cells KB-V1; further: nearly all actives have a fitted effect of over 60% in size
# Conditions: KB-V1 MDR cells viability, CellTiter-Glo, 72 h; activity change, negative = cytotoxicity: at 46.1 µM (top of the series)
# Method in brief: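 Drug-selected KB-V1 cells, grown in DMEM lacking phenol red with 10% FBS, receive compound titrations; after three days at 37 degrees C, surviving cell ATP is quantified by CellTiter-Glo luminescence and responses normalized and curve-fitted.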
# On the % scale 0 is the no-effect control and ±100 the full control effect; potency means the concentration at half of the fitted maximal effect.
SMILES,Potency,"activity change, negative = cytotoxicity"
CC(=O)Nc1ccc(S(=O)(=O)N2CCN(CCCOc3cc(C)ccc3C)CC2)cc1,"inconclusive: 20.6 µM [cytotoxic, single point]",
COc1ccc(N2CC(NS(=O)(=O)c3ccc(F)cc3)CC2=O)cc1 (stereo not given),,inactive: 4.59%
O=C(Cn1cnc2c(cnn2-c2ccccc2)c1=O)N1CCCc2ccccc21,"inconclusive: 20.6 µM [cytotoxic, single point]",
Cc1onc(-c2ccccc2Cl)c1C(=O)N1CCCc2ccccc21,"inconclusive: 29.1 µM [cytotoxic, single point]",
CCc1nc(SCC(=O)NCCc2ccccc2)c2oc3ccccc3c2n1,active: 18.4 µM,
O=C(NCCN1C(=O)S/C(=C\c2ccccc2)C1=O)C1CCN(S(=O)(=O)c2cccs2)CC1,"inconclusive: 29.1 µM [cytotoxic, single point]",
CCCCN1C[C@H](COC(=O)CCC)Oc2cccc(F)c2S1(=O)=O,,inactive: -3.14%
COc1cccc(C(=O)N/N=c2/oc3ccccc3cc2C(N)=O)c1,"inconclusive: 16.4 µM [cytotoxic, single point]",
CC(C)[C@H]1COCCS(=O)(=O)N1Cc1ccc(Cl)cc1,"inconclusive: 14.6 µM [cytotoxic, partial curve, poor fit]",
CCNC(=O)COc1ccc(Br)cc1Cl,"inconclusive: 18.4 µM [cytotoxic, single point]",
CCNC(=O)C1CCCN(C(=O)c2ccc(OC)cc2OC)CC1 (stereo not given),,inactive: 2.93%
CCOC(=O)c1noc2ncn(CC(=O)O)c(=O)c12,,inactive: 0.13%
CCn1c(=O)cc(SCC(=O)Nc2ccc(C)cn2)c2ccccc21,"inconclusive: 23.1 µM [cytotoxic, single point]",
Cc1ccc(-c2cc(C(=O)Nc3ccccn3)c3ccccc3n2)o1,"inconclusive: 9.2 µM [cytotoxic, partial curve]",
Cc1ccc(N2CCN(CC(O)COc3ccccc3)CC2)cc1 (stereo not given),,inconclusive: -7.78%
Cc1ccc(CN2Cc3cccc4c3[C@@H](CC2=O)[C@H](O)[C@H](O)C4)cc1,"inconclusive: 29.1 µM [rising, single point]",
Cn1c(=O)c(/C=C/c2ccccc2)nc2ccccc21,active: 14.6 µM,
Cc1ccnc(NC(=O)c2ccc(OCc3c(C)noc3C)cc2)c1,"inconclusive: 8.2 µM [cytotoxic, partial curve, poor fit]",
C/C(=N\NC(=O)Cn1ccc(C(F)(F)F)n1)c1ccc(N2CCOCC2)cc1,,inactive: 2.31%
Cc1oc(-c2ccc3ccccc3c2)nc1CN(C)C(C)c1ccncn1 (stereo not given),"inconclusive: 14.6 µM [cytotoxic, partial curve]",

# A run of entries of the results above, as a working copy:
SMILES,Potency,"activity change, negative = cytotoxicity"
COc1ccc(N2CC(NS(=O)(=O)c3ccc(F)cc3)CC2=O)cc1 (stereo not given),,inactive: 4.59%
O=C(Cn1cnc2c(cnn2-c2ccccc2)c1=O)N1CCCc2ccccc21,"inconclusive: 20.6 µM [cytotoxic, single point]",
